Measured data: PubChem BioAssay AID1259266 (Sanger Institute, 2017)

Aim: 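Find knock-downs that kill LS123 cells or act with anchor drugs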 (primary screen)
Cells: LS123 human colorectal cancer cells
Reagent: siRNA pool against human genes
Challenge: anchor drugs BYL719 (1 µM), cetuximab (5 µg/ml) or trametinib (10 nM), each chosen to barely slow growth alone; DMSO vehicle as the drug-free arm
Detection: 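Replicate-averaged viability scaled to non-targeting pools, robust z-score for siRNA alone, and a synergy score per anchor drug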
Direction: robust z-score, knock-down alone: higher = more cells surviving after knock-down; viability, knock-down alone: higher = more viable cells
Units: viability, knock-down alone in fraction of control
Hit rule: 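a knock-down counts as essential if its z-score without drug is under -3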
Calls: active = essential (knock-down alone cuts viability); inactive = no change
Shown is an unselected part of 794 deposited reagents. 16 of them (2%) count as active. 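Calls reflect knock-down alone, not drug synergy; viability seems capped at 1 and z-scores at 0.585.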 Further read-outs or replicates are left out here. Reagent sequences are not shown. Not stated in the record: the amount of reagent, the time to read-out.

With EPHA10, how do the results read?
robust z-score, knock-down alone: -1.5; viability, knock-down alone: 0.876; outcome: inactive

What did the screen give for NEK7?
robust z-score, knock-down alone: 0.585; viability, knock-down alone: 1; outcome: inactive

What did the screen give for PHKB?
robust z-score, knock-down alone: 0.585; viability, knock-down alone: 1; outcome: inactive

Which result is listed for CAMKK1?
robust z-score, knock-down alone: 0.533; viability, knock-down alone: 0.997; outcome: inactive

Which result is listed for PRKCSH?
robust z-score, knock-down alone: 0.585; viability, knock-down alone: 1; outcome: inactive

What did the screen give for STK4?
robust z-score, knock-down alone: 0.585; viability, knock-down alone: 1; outcome: inactive

What is on record for PLK4?
robust z-score, knock-down alone: -0.211; viability, knock-down alone: 0.953; outcome: inactive

What did the screen give for PRKAA1?
robust z-score, knock-down alone: 0.585; viability, knock-down alone: 1; outcome: inactive

What did the screen give for PI4KA?
robust z-score, knock-down alone: 0.0571; viability, knock-down alone: 0.969; outcome: inactive

What is on record for RELA?
robust z-score, knock-down alone: 0.0824; viability, knock-down alone: 0.97; outcome: inactive

How did the screen score MARK1?
robust z-score, knock-down alone: 0.585; viability, knock-down alone: 1; outcome: inactive

What did the screen give for FYN?
robust z-score, knock-down alone: 0.585; viability, knock-down alone: 1; outcome: inactive

Records above whose target name begins with P or p (5):
PHKB → robust z-score, knock-down alone: 0.585; viability, knock-down alone: 1; outcome: inactive
PRKCSH → robust z-score, knock-down alone: 0.585; viability, knock-down alone: 1; outcome: inactive
PLK4 → robust z-score, knock-down alone: -0.211; viability, knock-down alone: 0.953; outcome: inactive
PRKAA1 → robust z-score, knock-down alone: 0.585; viability, knock-down alone: 1; outcome: inactive
PI4KA → robust z-score, knock-down alone: 0.0571; viability, knock-down alone: 0.969; outcome: inactive
